Assay results reported in the supplement of paper PMC8104966.
This is one part of the list. This data set is noisy: repeats of one test often differ as much as different tests do.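 U2OS cells carrying ACE2 were mixed with U2OS cells carrying full-length spike, and fusion was scored by imaging as the share of nuclei showing both cell types' fluorescent markers. A compound counts as an inhibitory hit when it is non-toxic and its fusion z-score falls below -3, meaning more than three standard deviations below the plate's DMSO wells.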

system: U2OS ACE2 x SARS-CoV-2 spike co-culture; test: cell-cell fusion (fraction fused) z-score vs plate DMSO control; higher = more fusion; conditions: 30 µM; 5 h; toxicity class: non-toxic, passed QC

| SMILES | cell-cell fusion (z-score) |
| --- | --- |
| CCCc1nc2c(C)cc(-c3nc4ccccc4n3C)cc2n1Cc1ccc(-c2ccccc2C(=O)O)cc1 [Telmisartan] | inactive: 2.97 |
| N[C@@H](COP(=O)(O)O)C(=O)O [O-Phospho-L-serine] | inactive: 1.73 |
| COc1ccc(C2Sc3ccccc3N(CCN(C)C)C(=O)C2OC(C)=O)cc1.Cl (configuration not stated) | inactive: 2.55 |
| CC(N)(Cc1ccc(O)c(O)c1)C(=O)O (racemic) [(±)-3-(3,4-dihydroxyphenyl)-2-methyl-DL-alanine] | inactive: 1.82 |
| NC(=O)c1ccc(I)c([N+](=O)[O-])c1 [Iniparib (BSI-201)] | inactive: 2.25 |
| COc1cc(C(C)=O)cc(OC)c1O | inactive: 1.7 |
| CC(=O)O[C@H]1CC[C@@]2(C)C(C[C@@H](OC(C)=O)[C@]3(C)C2CC[C@@]2(C)[C@H](c4ccoc4)OC(=O)[C@H]4O[C@]423)C1(C)C (some centres not stated) | inactive: 3.6 |
| N[C@@H](CS)C(=O)O [cysteine] | inactive: 2.16 |
| O=C(O)CSCC(=O)NC1CCSC1=O (configuration not stated) | inactive: 2.14 |
| CCCCCCC(=O)OC1CC(C)(C)NC(C)(C)C1.Cl [TMPH hydrochloride] | inactive: 2.9 |
| Cl.NCCCC(=O)O [gamma-AMINOBUTYRIC ACID HYDROCHLORIDE] | inactive: 0.411 |
| NC(=O)c1ccc(N)nc1 | inactive: 5.24 |
| C1CNCCN1 | inactive: 0.882 |
| CC(C)(C)NS(=O)(=O)c1cncc(-c2cc(F)c3nc(N)nn3c2)c1 | inactive: 2.35 |
| COc1c(C)c(C(=O)c2ccc(N)c(C(=O)[O][Na])c2)n2ccccc12 | inactive: 1.21 |
| C=C1C(C2(C)C=CC(=O)C(C)(C)C2CC(=O)OC)CC[C@@]2(C)[C@H](c3ccoc3)OC(=O)C3OC132 (some centres not stated) | inactive: 1.86 |
| COC(=O)Nc1nc2cc(C(=O)c3cccs3)ccc2[nH]1 [Nocodazole] | inactive: 0.559 |
| CC(C)=CCC/C(C)=C/CO | inactive: 2.46 |
| C[C@H](NCCc1ccc(O)cc1)[C@H](O)c1ccc(O)cc1.Cl [Ritodrine hydrochloride] | inactive: -0.545 |
| CC(C)(C)[C@@H]1NC(=O)O[C@@H]2CCC[C@H]2OCC=CC(F)(F)c2nc3ccccc3nc2O[C@@H]2C[C@@H](C(=O)N[C@]3(C(=O)NS(=O)(=O)C4(C)CC4)C[C@H]3C(F)F)N(C2)C1=O [Glecaprevir] | inactive: 1.49 |
| O=C(CCc1ccc(O)cc1)c1c(O)cc(O)cc1O | inactive: 1.82 |
| CO/N=C(\C(=O)N[C@@H]1C(=O)N2C(C(=O)O)=C(CSc3nnnn3C)CS[C@H]12)c1csc(N)n1.CO/N=C(\C(=O)N[C@@H]1C(=O)N2C(C(=O)O)=C(CSc3nnnn3C)CS[C@H]12)c1csc(N)n1.Cl [Cefmenoxime hydrochloride] | inactive: 2.31 |
| N[C@@H](Cc1ccc(O)c(O)c1)C(=O)O | inactive: 3.45 |
| N[C@@H](Cc1ccc(O)c(O)c1)C(=O)O [L-3,4-Dihydroxyphenylalanine] | inactive: 3.81 |

| SMILES | cell-cell fusion (z-score) |
| --- | --- |
| Cl.NC(CO)C(=O)NNCc1ccc(O)c(O)c1O (configuration not stated) | inactive: 1.78 |
| C[C@]12CCC(=O)C=C1CC[C@@H]1[C@@H]2C(=O)C[C@@]2(C)[C@H]1CC[C@]2(O)C(=O)CO [Cortisone] | inactive: 1.62 |
| O=C(O)Cc1cc(I)c(Oc2cc(I)c(O)c(I)c2)c(I)c1 | inactive: 2.44 |
| O=[N+]([O-])O[C@H]1CO[C@H]2[C@@H]1OC[C@H]2O[N+](=O)[O-] | inactive: 1.69 |
| COc1ccc2c(c1)CC[C@@H]1[C@@H]2CC[C@]2(C)[C@H](NCCCCCCN3C(=O)C=CC3=O)CC[C@@H]12 | inactive: 0.974 |
| NC1(C(=O)O)CC1 | inactive: 1.95 |
| N#Cc1ccc(Oc2ccc3c(c2)COB3O)cc1 [Crisaborole] | inactive: 0.953 |
| CN(C)c1ccc(O)c2c1C[C@H]1C[C@H]3[C@H](N(C)C)C(O)=C(C(N)=O)C(=O)[C@@]3(O)C(O)=C1C2=O.Cl [Minocycline hydrochloride] | inactive: 1.5 |
| CC12NC(Cc3ccccc31)c1ccccc12.O=C(O)/C=C/C(=O)O (single isomer, unassigned; (-)) [(-)-MK-801 hydrogen maleate] | inactive: 1.95 |
| C#C[C@]1(O)CCC2C3CCc4cc(OC)ccc4C3CC[C@@]21C (some centres not stated) | inactive: 1.53 |
| N[C@@H](CC(=O)O)C(=O)O [L-Aspartic acid] | inactive: 2.22 |
| C[N+]1(C)CCC(OC(=O)C(O)(c2ccccc2)C2CCCC2)C1.[Br-] (configuration not stated) | inactive: 2 |
| Cc1ccc(C(=O)C(C)CN2CCCCC2)cc1.Cl (configuration not stated) | inactive: 2.28 |
| COc1ccccc1OCC(O)CO (configuration not stated) | inactive: 1.93 |
| CN(C)CCOC(c1ccc(Cl)cc1)c1ccccn1.O=C(O)/C=C\C(=O)O (configuration not stated) [Carbinoxamine Maleate Salt] | inactive: 3.39 |
| Cc1ccc(S(=O)(=O)[N-]Cl)cc1.[Na+] | inactive: 1.01 |
| O=C(N[C@H](CO)[C@H](O)c1ccc([N+](=O)[O-])cc1)C(Cl)Cl [Chloramphenicol] | inactive: 3.02 |
| O=C(NC(=O)c1c(F)cccc1F)Nc1cc(Cl)c(OC(F)(F)C(F)C(F)(F)F)cc1Cl (configuration not stated) | inactive: 2.86 |
| CCCC(CCC)C(=O)O.CCCC(CCC)C(=O)[O-].[Na+] [Divalproex Sodium] | inactive: 1.65 |
| Nc1ccc(-c2ccc3ncc4ccc(=O)n(-c5cccc(C(F)(F)F)c5)c4c3c2)cn1 [Torin 2] | inactive: 1.82 |
| CC#CCOC(=O)c1c(C)nc2sc3c(c2c1N)CCC(O)C3 (configuration not stated) | inactive: 0.934 |
| CNc1ccc2oc(C[C@H]3O[C@@]4(CC[C@H]3C)O[C@H]([C@H](C)C(=O)c3ccc[nH]3)[C@H](C)C[C@H]4C)nc2c1C(=O)O [Calcimycin] | inactive: 0.958 |
| CCN1/C(=C/C(C)=O)Sc2ccc(OC)cc21 | inactive: 0.258 |

3 successive entries out of the list so far, for reference:

| SMILES | cell-cell fusion (z-score) |
| --- | --- |
| CC(=O)O[C@H]1CC[C@@]2(C)C(C[C@@H](OC(C)=O)[C@]3(C)C2CC[C@@]2(C)[C@H](c4ccoc4)OC(=O)[C@H]4O[C@]423)C1(C)C (some centres not stated) | inactive: 3.6 |
| N[C@@H](CS)C(=O)O [cysteine] | inactive: 2.16 |
| O=C(O)CSCC(=O)NC1CCSC1=O (configuration not stated) | inactive: 2.14 |
